Laboratory results: PubChem BioAssay AID1224826 (NIAID, 2016)
Here is one part, drawn at random, of about 17,000 reagents. Of all reagents, about 1,110 (6.6%) are marked active. 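Active means lowered or raised reporter signal; replicate intensities are raw and not normalised per plate.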

Screen: 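Genes that change LPS-induced Tnf promoter activity in mouse macrophages when knocked down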 (primary screen)
Cell system: RAW264.7 G9 macrophages from mouse bearing reporters for p65 (GFP) and the Tnf promoter (mCherry)
Reagents: siRNA pool against mouse genes, 100 nM
Duration: 16 h of LPS stimulation, after 2 days of siRNA transfection
Conditions: bacterial lipopolysaccharide (Salmonella minnesota R595), 10 ng/ml
Measured: 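Imaged Tnf reporter mCherry in nuclei, minus background, normalised per plate to the median and expressed as robust z-scores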
Reading the numbers: Tnf reporter robust z-score: higher = stronger Tnf promoter reporter signal after LPS; Tnf reporter intensity: higher = stronger Tnf promoter reporter signal
Rule for the call: 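Called active when robust z-score is at most -1.3, matching the median of the Tlr4 knock-down control, or over 3; control wells and wells with under 50 cells never active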
Meaning of the calls: active = Tnf reporter clearly lowered or raised; inactive = no clear change in Tnf reporter

| gene | PubChem SID | Tnf reporter robust z-score | fewer than 50 cells in well | Tnf reporter intensity, replicate 1 | Tnf reporter intensity, replicate 2 | call |
| --- | --- | --- | --- | --- | --- | --- |
| Gnptg | SID315477865 | -1.22 | enough cells in well | 104 | 93.5 | inactive |
| Oas1c | SID315477022 | -0.67 | enough cells in well | 178 | 88.9 | inactive |
| Zdhhc2 | SID315474076 | 0.78 | enough cells in well | 139 | 177 | inactive |
| Ly75 | SID315467785 | – | fewer than 50 cells per well; well left out of calls | 129 | 143 | inactive |
| BC002059 | SID315477827 | -0.28 | enough cells in well | 184 | 192 | inactive |
| Klk11 | SID315471602 | 0.98 | enough cells in well | 206 | 82 | inactive |
| Ubd | SID315470327 | -0.54 | enough cells in well | 164 | 216 | inactive |
| Exosc8 | SID315473855 | 0.96 | enough cells in well | 282 | 212 | inactive |
| Sult1a1 | SID315469507 | -0.59 | enough cells in well | 259 | 142 | inactive |
| Klrb1f | SID315478985 | -0.32 | enough cells in well | 150 | 139 | inactive |
| Ttc8 | SID315475271 | -0.16 | enough cells in well | 113 | 54.8 | inactive |
| Lhx8 | SID315467749 | 2.69 | enough cells in well | 373 | 270 | inactive |
| Fus | SID315479127 | 0.18 | enough cells in well | 296 | 228 | inactive |
| Arl14ep | SID315477761 | -0.48 | enough cells in well | 260 | 58.7 | inactive |
| Slc29a2 | SID315466312 | -1.76 | enough cells in well | 43.7 | 42.7 | active |
| Apol9b | SID315474369 | -1.81 | enough cells in well | 64.4 | 86.3 | active |
| Adam23 | SID315470171 | 0.09 | enough cells in well | 188 | 157 | inactive |
| Adam23 | SID315470172 | -0.42 | enough cells in well | 150 | 138 | inactive |
| Galr2 | SID315466822 | 0.09 | enough cells in well | 209 | 326 | inactive |
| Or5t15 | SID315480375 | 0.32 | enough cells in well | 191 | 180 | inactive |
| Nab1 | SID315468090 | -1.67 | enough cells in well | 99.6 | 45.6 | active |
| Cfap300 | SID315479211 | 0.97 | enough cells in well | 229 | 213 | inactive |
| Per2 | SID315468468 | 0.66 | enough cells in well | 303 | 216 | inactive |
| Foxn1 | SID315467190 | 0.41 | enough cells in well | 274 | 285 | inactive |
| Ebpl | SID315473439 | 0.38 | enough cells in well | 195 | 141 | inactive |
| Ngef | SID315471138 | 0.62 | enough cells in well | 255 | 139 | inactive |
| Slc72a1 | SID315467203 | 0.59 | enough cells in well | 293 | 198 | inactive |
| Cpne5 | SID315479477 | 0.36 | enough cells in well | 251 | 241 | inactive |
| Cnn3 | SID315474412 | -0.32 | enough cells in well | 119 | 196 | inactive |
| Rpl10 | SID315476954 | – | fewer than 50 cells per well; well left out of calls | 65 | 49.6 | inactive |
| Ptprt | SID315468823 | -0.41 | enough cells in well | 151 | 155 | inactive |
| Nop53 | SID315473400 | 0.34 | enough cells in well | 282 | 194 | inactive |
| Casp7 | SID315465773 | 0.17 | enough cells in well | 153 | 172 | inactive |
| Best2 | SID315477771 | 1.56 | enough cells in well | 183 | 135 | inactive |
| Dtx1 | SID315466770 | -0.9 | enough cells in well | 197 | 108 | inactive |
| Or5d18 | SID315477077 | – | fewer than 50 cells per well; well left out of calls | 60.7 | 39.9 | inactive |
| Zfp85 | SID315470132 | -1.58 | enough cells in well | 84 | 28.8 | active |
| Tnfaip8l2 | SID315473893 | – | fewer than 50 cells per well; well left out of calls | 104 | 17.4 | inactive |
| Nop14 | SID315475117 | 0.24 | enough cells in well | 268 | 76.6 | inactive |
| Cd300lf | SID315479893 | 0.01 | enough cells in well | 232 | 229 | inactive |
| Gm14296 | SID315475421 | 0.61 | enough cells in well | 163 | 75.3 | inactive |
| Gm14296 | SID315479803 | – | fewer than 50 cells per well; well left out of calls | 167 | 196 | inactive |
| Il6st | SID315467462 | -0.13 | enough cells in well | 215 | 153 | inactive |
| Ifi44l | SID315467133 | -1.01 | enough cells in well | 171 | 122 | inactive |
| Prdx6 | SID315465429 | -0.66 | enough cells in well | 168 | 170 | inactive |
| Khdrbs1 | SID315469093 | 0.39 | enough cells in well | 223 | 205 | inactive |
| Nkd2 | SID315474508 | 0.91 | enough cells in well | 222 | 216 | inactive |
| Pira4 | SID315468525 | 0.85 | enough cells in well | 190 | 143 | inactive |
| Vax1 | SID315469985 | – | fewer than 50 cells per well; well left out of calls | 81.7 | 112 | inactive |
| Slc51a | SID315476540 | -1.1 | enough cells in well | 132 | 91.9 | inactive |
| Slc6a11 | SID315479693 | -0.97 | enough cells in well | 211 | 61.8 | inactive |
| Henmt1 | SID315472602 | -0.37 | enough cells in well | 140 | 58.6 | inactive |
| Myo18a | SID315481725 | -0.72 | enough cells in well | 177 | 77.6 | inactive |
| Tmem41a | SID315472573 | 2.75 | enough cells in well | 319 | 303 | inactive |
| Ctbp2 | SID315466186 | 0.04 | enough cells in well | 218 | 226 | inactive |
| Tfpi | SID315469684 | -0.26 | enough cells in well | 284 | 77.6 | inactive |
| Nkx2-2 | SID315468180 | -0.04 | enough cells in well | 269 | 155 | inactive |
| Slamf7 | SID315475107 | 1.45 | enough cells in well | 163 | 138 | inactive |

4 consecutive entries from above:
| gene | PubChem SID | Tnf reporter robust z-score | fewer than 50 cells in well | Tnf reporter intensity, replicate 1 | Tnf reporter intensity, replicate 2 | call |
| --- | --- | --- | --- | --- | --- | --- |
| Slc6a11 | SID315479693 | -0.97 | enough cells in well | 211 | 61.8 | inactive |
| Henmt1 | SID315472602 | -0.37 | enough cells in well | 140 | 58.6 | inactive |
| Myo18a | SID315481725 | -0.72 | enough cells in well | 177 | 77.6 | inactive |
| Tmem41a | SID315472573 | 2.75 | enough cells in well | 319 | 303 | inactive |
